Results of single-concentration screens

From ChEMBL document CHEMBL3988442, “University of Dundee, Small-Polar-MMV Screening Library” (2021).

The filed quantity is “Percent Effect” (%).
How 0% and 100% were set is not recorded. Most values in the screen are low, and negative values occur.
This is an unselected part of the compounds tested.
Two or more numbers in one place are separate tests of the same structure; such repeats can differ widely.

Mtb glucose medium: 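Whole-cell growth test on Mycobacterium tuberculosis, read after 3 days in glucose-containing 7H9 medium; the read-out is not stated. Concentration: 50 µM. Direction is inferred from retests: higher values go with more growth inhibition. Size under these conditions: about 69,000 compounds, about 760 of them at 50% or above in at least one test.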
Mtb cholesterol medium: 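Phenotypic screen: M. tuberculosis growth, cholesterol and DPPC medium, 4 days; the read-out is not stated. Tested at 50 µM. Higher reads as more growth inhibition (inferred: compounds with an IC50 in retests scored well above the rest). About 69,000 compounds were tested under these conditions; 0.54% (about 370) showed 50% or more at least once.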

Compound: N#CCCCS(=O)(=O)NC(=O)c1ccccc1F
Mtb glucose medium: -11.7 and 0.5028
Mtb cholesterol medium: -7.059

Compound: CC(C)n1nc(CN2CCCC2)c2c1CN(CC1CC1)CC2.O=C(O)C(F)(F)F.O=C(O)C(F)(F)F
Mtb glucose medium: -30.03
Mtb cholesterol medium: -19.42

Compound: Cn1cc(NC(=O)c2cccc(Cl)c2)c(=O)n(C)c1=O
Mtb glucose medium: -12.48
Mtb cholesterol medium: -16.37

Compound: c1cnc(N2CCOCC3(CCCN(c4nncs4)C3)C2)cn1 (stereo not shown)
Mtb glucose medium: -13.77
Mtb cholesterol medium: -14.96

Compound: CC(C)(C(=O)O)S(=O)(=O)c1ccc(Br)cc1
Mtb glucose medium: 12.19
Mtb cholesterol medium: 6.495

Compound: Cc1cnn(CC2CCCN2C(=O)c2ccc3c(c2)nnn3C)c1 (stereo not shown)
Mtb glucose medium: -19.29
Mtb cholesterol medium: -3.927

Compound: CN(Cc1ccco1)Cc1cnc2n1CCN(S(C)(=O)=O)CC2.O=C(O)C(F)(F)F
Mtb glucose medium: -14.97 and -3.921
Mtb cholesterol medium: -14.94

Compound: CCc1ccc(C(=O)N2CCCC2c2nnc3n2CCCCC3)o1 (stereo not shown)
Mtb glucose medium: 3.952
Mtb cholesterol medium: -5.829

Compound: COc1ccc(-c2ccnc3nc(N4CCCCC4)[nH]c(=O)c23)cc1
Mtb glucose medium: -5.219
Mtb cholesterol medium: -4.954

Compound: Cc1nccn1-c1ccc(C(C)NCc2cc[nH]n2)cc1 (stereo not shown)
Mtb glucose medium: 0.8314 and 15.38
Mtb cholesterol medium: -8.108

Compound: CC(C)CNC(=O)CC1(Cn2cnnn2)CCCCC1
Mtb glucose medium: 4.741
Mtb cholesterol medium: -1.679

Compound: CCn1cc(CN2CCN(C)C3(CCC(=O)N(CC4CC4)CC3)C2)cn1 (stereo not shown)
Mtb glucose medium: -12.77
Mtb cholesterol medium: -15.16 and -11.2

Compound: O=C(c1n[nH]c(=O)c2ccccc12)N1CCC(O)(CN2CCOCC2)C1 (stereo not shown)
Mtb glucose medium: -2.264
Mtb cholesterol medium: -1.807

Compound: Cc1nccn1-c1ccccc1CNC(=O)c1cn(CCN)nn1
Mtb glucose medium: 9.362
Mtb cholesterol medium: -6.271

Compound: Cc1nc(C)n(CC2CCCCN2CCS(C)(=O)=O)n1 (stereo not shown)
Mtb glucose medium: -17.75
Mtb cholesterol medium: -5.744

Compound: Cn1cccc1C(=O)N1CCC2(CC1)CC(N1CCOCC1)C2.O=C(O)C(F)(F)F
Mtb glucose medium: -8.186
Mtb cholesterol medium: 12.78 and -3.511

Compound: Cc1ccc(-c2nc(C3CCN(C(=O)c4ccn(C)n4)CC3)no2)cn1
Mtb glucose medium: -23.38
Mtb cholesterol medium: 4.362 and -6.357

Compound: CSCC(CCO)NC(=O)Nc1ccc(C)cc1Br (stereo not shown)
Mtb glucose medium: 26.84
Mtb cholesterol medium: 28.83

Compound: CC(C)(C)n1ncc2c1NC(=O)CC2c1ccc(C(=O)O)cc1 (stereo not shown)
Mtb glucose medium: 6.734
Mtb cholesterol medium: 8.152

Compound: Cc1ccc2nnc(C(=O)NCCCn3cccn3)nc2c1
Mtb glucose medium: 54.36
Mtb cholesterol medium: -18.36

Compound: Cc1cnn(CC2CCCCN2CCCS(C)(=O)=O)c1 (stereo not shown)
Mtb glucose medium: -11.04
Mtb cholesterol medium: -2.673

Compound: COCCCNS(=O)(=O)c1cc(C)sc1C
Mtb glucose medium: 22.21
Mtb cholesterol medium: -11.86

Compound: O=C(O)C(F)(F)F.[H][C@@]12CCCO[C@]1([H])[C@@H](Oc1cccnc1)CN2C(=O)CC1CCCC1
Mtb glucose medium: 7.549
Mtb cholesterol medium: 0.2526 and 4.185

Compound: [H][C@@]12CCN(Cc3nc(C)cs3)C[C@@]1([H])O[C@@H](c1ccncn1)C2
Mtb glucose medium: 29.34 and 5.347
Mtb cholesterol medium: 22.83

Compound: CN(C)C(=O)c1ccc(-c2cccc3c2CCNC3)cc1
Mtb glucose medium: 8.618
Mtb cholesterol medium: 0.5645

Compound: CC(C)CC(NCc1cccs1)c1ccccn1 (stereo not shown)
Mtb glucose medium: -0.0375
Mtb cholesterol medium: 3.203

Compound: O=C1CCCN1CCc1nc(-c2ccsc2)no1
Mtb glucose medium: -5.56
Mtb cholesterol medium: 20.61

Compound: CCC(CC)c1cc(C(=O)N2CCCC(n3cncn3)C2)on1 (stereo not shown)
Mtb glucose medium: 4.183 and 27.3
Mtb cholesterol medium: 3.03

Compound: c1ccc(CCCN2CC(n3cccn3)C2)cc1
Mtb glucose medium: 1.146
Mtb cholesterol medium: 4.346

Repeated from the top, 2 entries:

Result for N#CCCCS(=O)(=O)NC(=O)c1ccccc1F was Mtb glucose medium: -11.7% and 0.5028%; Mtb cholesterol medium: -7.059%.
Result for CC(C)n1nc(CN2CCCC2)c2c1CN(CC1CC1)CC2.O=C(O)C(F)(F)F.O=C(O)C(F)(F)F was Mtb glucose medium: -30.03%; Mtb cholesterol medium: -19.42%.